Measured values published in publication PMC12670160, “A drug-repurposing screen of FDA- and EMA-approved drugs identifies two NF-κB inhibitors active against eumycetoma” (Journal of Antimicrobial Chemotherapy, 2025).
Structures can show the parent of a compound that is named as a salt. Among all 5,300 compounds or so, about 130 (2.5%) showed an effect of 50% or more. The list shows a part of the results.

system: M. mycetomatis strain mm55; conditions: primary screen, metabolic activity vs growth control; 96 h, 2 µM; inhibitor

SMILES | % viability [%]
CNCCc1ccc(O)c(O)c1 [ONC0001999, nmethyldopaminehcl] | 94.89
CCOc1ccc(-n2c(C(C)N(Cc3cccnc3)C(=O)Cc3ccc(OC(F)(F)F)cc3)nc3ncccc3c2=O)cc1 (stereo not drawn) [ONC0001754, amg487] | 68.56
COC(=O)C[C@](O)(CCCC(C)(C)O)C(=O)O[C@@H]1C(OC)=C[C@]23CCCN2CCc2cc4c(cc2[C@H]13)OCO4 [ONC0001577, homoharringtonine] | 108.7
O[C@H]1[C@H](O)[C@@H](O)[C@H](O)[C@@H](O)[C@H]1O [ONC0000427, inositol] | 57.73
CCCN(CCC)CCc1cccc2c1CC(=O)N2 [ONC0004519, ropinirole hcl] | 61.14
C=C(C)[C@@H]1CC[C@]2(CO)CC[C@]3(C)[C@H](CC[C@@H]4[C@@]5(C)CC[C@H](O)C(C)(C)[C@@H]5CC[C@]43C)[C@@H]12 [ONC0003471, betulin] | 84.11
COc1cccc2c1C(=O)c1c(O)c3c(c(O)c1C2=O)C[C@@](O)(C(=O)CO)C[C@@H]3O[C@H]1C[C@H](N)[C@@H](O)[C@H](C)O1 [ONC0004636, epirubicin hydrochloride] | 92.65
CCOCOC[C@H](C[C@H](C)C(=O)NO)NC(=O)c1ccc(Oc2ccccc2)cc1 [ONC0001635, ono4817] | 89.13
CC(C)Nc1cccnc1N1CCN(C(=O)c2cc3cc(NS(C)(=O)=O)ccc3[nH]2)CC1 [ONC0001146, delavirdine mesylate] | 93.77
COC(=O)C1=CO[C@@H](O[C@@H]2O[C@H](CO)[C@@H](O)[C@H](O)[C@H]2O)[C@@H]2C(CO)=CC[C@H]12 [ONC0004967, geniposide] | 114.1
OC(CN1CCNCC1)Cn1c2ccc(Br)cc2c2cc(Br)ccc21 (stereo not drawn) [ONC0000234, baxchannelblocker] | 89.77
COc1ccc(Cn2ccc3ccc(C(=O)NO)cc32)cc1 [ONC0004796, pci34051] | 84.92
C#Cc1cccc(Nc2ncnc3cc(OCCOC)c(OCCOC)cc23)c1 [ONC0004502, erlotinibosi744] | 72.87
N[C@@H](C(=O)N[C@@H]1C(=O)N2C(C(=O)O)=C(Cl)CC[C@H]12)c1ccccc1 [ONC0004194, loracarbef] | 85.4
COc1ccccc1OC(=O)CNC(=O)Cc1ccc(C(=O)c2ccc(C)cc2)n1C [ONC0005319, amtolmetinguacil] | 119.3
Cc1nnc(C(C)C)n1[C@@H]1C[C@H]2CC[C@@H](C1)N2CC[C@H](NC(=O)C1CCC(F)(F)CC1)c1ccccc1 [ONC0004641, maraviroc] | 78.39
NC(=O)c1cnc(N[C@@H]2CCCC[C@@H]2N)nc1Nc1cccc(-n2nccn2)c1 [ONC0004537, prt062607 p50515 prt2607 biib057 hcl] | 79.25
CCC1OC(=O)CC(O)C(C)C(OC2OC(C)CC(N(C)C)C2O)C(CC=O)CC(C)C(=O)/C=C/C2(C)OC2C1C (stereo not drawn) [ONC0003863, rosamicin] | 58.59
CN[C@@H]1[C@H](O)[C@H](NC)[C@H]2O[C@@]3(O)C(=O)C[C@@H](C)O[C@H]3O[C@@H]2[C@H]1O [ONC0000602, spectinomycin hydrochloride] | 88.5
COCC(O)Cn1ccnc1[N+](=O)[O-] (stereo not drawn) [ONC0005623, misonidazole] | 105.3

SMILES | % viability [%]
NS(=O)(=O)c1cc2c(cc1Cl)NC(C(Cl)Cl)NS2(=O)=O (stereo not drawn) [ONC0003174, trichlormethiazide] | 103.4
CCCCCCCCCCCCCCCCCCCCCCO [ONC0004037, docosanol] | 81.2
O=C(O)C=C1NN(Cc2nc3cc(C(F)(F)F)ccc3s2)C(=O)c2ccccc21 [ONC0005526, zopolrestat] | 123.5
CC(C)C[C@@H](C(=O)N[C@H](C(=O)OC1CCCC1)c1ccccc1)[C@H](O)C(=O)NO [ONC0000136, tosedostat] | 92.23
COc1ccc(O)cc1 [ONC0003179, mequinol] | 104.8
CCCCCCOC(=O)NC(=N)c1ccc(NCc2nc3cc(C(=O)N(CCC(=O)OCC)c4ccccn4)ccc3n2C)cc1 [ONC0004616, bibr1048 dabigatran] | 80.23
NCCCC(=O)O [ONC0005483, gammaaminobutyric acid hydrochloride] | 110.7
Cc1ccc(-c2nn(C(C)(C)C)c3ncnc(N)c23)cc1 [ONC0001717, pp1] | 54.48
O=C(Nc1nc2ccc(NC(=O)C34C[C@H]5C[C@@H](C3)C[C@@H](C4)C5)cc2s1)c1ccccc1 [ONC0000884, nvp 231] | 64.19
Cc1c(-c2ccccc2)oc2c(C(=O)OCCN3CCCCC3)cccc2c1=O [ONC0004488, flavoxate hcl] | 125.4
C[C@H](NCc1ccc(OCc2ccccc2F)cc1)C(N)=O [ONC0001748, priralfinamide] | 144.1
CC1(C)O[C@H]2CC(=O)OC[C@]23[C@H]2CC[C@@]4(C)[C@H](c5ccoc5)OC(=O)[C@H]5O[C@]54[C@]2(C)C(=O)C[C@@H]13 [ONC0004949, limonin] | 102.1
CC=CC=CC(=O)O [ONC0003780, sorbicacid] | 123.4
Nc1nc(-c2nn(Cc3ccccc3F)c3ncccc23)ncc1C1CC1 [ONC0001932, bay412272] | 94.25
CC/C(=C(\c1ccc(O)cc1)c1ccc(OCCN(C)C)cc1)c1ccccc1 [ONC0002197, afimoxifene] | 79.17
NC(=O)c1cccc(-c2cc(Nc3ccc(OC(F)(F)F)cc3)ncn2)c1 [ONC0000189, gnf2] | 60.6
Cc1cc(C)c(CNC(=O)c2cc(-c3ccc(CN4CCOCC4)cc3)cc3c2cnn3C2CCCC2)c(=O)[nH]1 [ONC0004363, epz005687] | 110.8
C[C@@H]1CC2C3CCC4=CC(=O)C=C[C@]4(C)[C@@]3(F)[C@@H](O)C[C@]2(C)[C@@]1(O)C(=O)CO (stereo partly drawn) [ONC0000416, dexamethasone] | 62.67
CN1CCN(c2cc(-c3ccccc3)nc(N)n2)CC1 [ONC0000245, vuf10460] | 72.62
Cc1ccc2c(c1)c1c3n2CCNC3CCC1 (stereo not drawn) [ONC0000187, pirlindole] | 65.77

Given tab-delimited: entries from further up.
SMILES	% viability [%]
CCCCCCCCCCCCCCCCCCCCCCO [ONC0004037, docosanol]	81.2
O=C(O)C=C1NN(Cc2nc3cc(C(F)(F)F)ccc3s2)C(=O)c2ccccc21 [ONC0005526, zopolrestat]	123.5
CC(C)C[C@@H](C(=O)N[C@H](C(=O)OC1CCCC1)c1ccccc1)[C@H](O)C(=O)NO [ONC0000136, tosedostat]	92.23
COc1ccc(O)cc1 [ONC0003179, mequinol]	104.8

Following part:

SMILES | % viability [%]
CCN(CC)CCOC(=O)c1cc(Cl)c(N)cc1OC [ONC0001595, sdz205557] | 77.83
C=C1/C(=C\C=C2/CCC[C@]3(C)[C@@H]([C@H](C)CCCC(C)C)CC[C@@H]23)C[C@@H](O)C[C@@H]1O [ONC0004827, alfacalcidol] | 97.64
O=C(O)CCNC(=O)c1ccccc1 [ONC0004244, betamipron] | 76.36
O=C(N[C@H](CO)[C@H](O)c1ccc([N+](=O)[O-])cc1)C(Cl)Cl [ONC0000271, chloramphenicol] | 92.15
CO[C@H]1/C=C\C=C(/C)C(=O)NC2=CC(=O)C(NCCN(C)C)=C(C[C@@H](C)C[C@H](OC)[C@H](O)[C@@H](C)/C=C(\C)[C@@H]1OC(N)=O)C2=O [ONC0004661, 17dmag hcl alvespimycin] | 79.66
C[n+]1c2cc(N)ccc2cc2ccc(N)cc21 [ONC0003217, acriflavinium hydrochloride] | 98.01
CC1=NN(c2ccccc2)C(=O)C1 [ONC0002411, edaravone] | 113.3
N#C/C(=C\c1cn(-c2ccccc2)c2ccccc12)C(=O)O [ONC0002506, uk5099] | 73.97
Cn1cnc2c1c(=O)[nH]c(=O)n2C [ONC0003414, theobromine] | 65.23
CN(C)C/C=C(/c1ccc(Br)cc1)c1cccnc1 [ONC0002681, zimelidine] | 89.4
CCCC(=O)O[C@]1(C(=O)CCl)[C@@H](C)C[C@H]2[C@@H]3CCC4=CC(=O)C=C[C@]4(C)[C@@]3(F)C(=O)C[C@@]21C [ONC0002193, clobetasonebutyrate] | 66.83
CCOc1ccc2ccccc2c1C(=O)N[C@@H]1C(=O)N2[C@@H]1SC(C)(C)[C@@H]2C(=O)O [ONC0000436, nafcillin sodium] | 67.04
COc1ccc(CNC(=O)/C=C/c2ccc3[nH]cc(CCN(C)C)c3c2)cc1 [ONC0000058, gr46611] | 86.05
CCN(CC)CCNC(=O)c1cc(Cl)c(N)cc1OC [ONC0000475, metoclopramide hydrochloride] | 87.44
NCCCNCCCCNCCCN [ONC0002015, spermine4hcl] | 111.3
Cc1sc(C)c(C(=O)NC2(c3ccc(C(=O)O)cc3)CC2)c1Cc1ccc(C(F)(F)F)cc1 [ONC0001789, mk2894] | 103.1
OCc1cccnc1 [ONC0002899, nicotinyl alcohol tartrate] | 107.4
COc1cc(N2CCC(N(C)C)CC2)ccc1Nc1ncc(Cl)c(Nc2ccccc2P(C)(C)=O)n1 [ONC0004568, ap26113] | 66.51
Cc1cc(O)cc2c1O[C@@](C)(CCC[C@@H](C)CCC[C@@H](C)CCCC(C)C)CC2 [ONC0002594, ddeltatocopherol] | 71.92
COc1cc2c(Oc3ccc(NC(=O)C4(C(=O)Nc5ccc(F)cc5)CC4)cc3F)ccnc2cc1OCCCN1CCOCC1 [ONC0004599, foretinib gsk1363089 xl880] | 73.52
